Source: US10799499B2, “Combinatorial therapies of neurological disorders” (PHARNEXT, priority 2016, dated 2020)
At least one structure is not confirmed: it was looked up by name or label, or the drawing left a doubt.

System: primary cortical neuron cells
Assay: Toxicity of human Aβ1-42 peptide on primary cortical neuron cells (MAP2 antibody labelling)
Format: cell-based, rat
Conditions: combinations versus drugs used alone at the same doses
Experimental: Effect on the Toxicity of Human Aβ1-42 Peptide on Primary Cortical Neuron Cells.
Culture of Primary Cortical Neurons
Rat cortical neurons are cultured as described by Singer et al.. Briefly pregnant female rats of 15 days gestation were killed by cervical dislocation (Rats Wistar) and the foetuses were removed from the uterus. The cortex was removed and placed in ice-cold medium of Leibovitz (L15) containing 2% of Penicillin 10.000 U/ml and Streptomycin 10 mg/ml and 1% of bovine serum albumin (BSA). Cortices were dissociated by trypsin for 20 min at 37° C. (0.05%). The reaction was stopped by the addition of Dulbecco's modified Eagle's medium (DMEM) containing DNase 1 grade II and 10% of fetal calf serum (FCS). Cells were then mechanically dissociated by 3 serial passages through a 10 ml pipette and centrifuged at 515×g for […] at +4° C. The supernatant was discarded and the pellet of cells was re-suspended in a defined culture medium consisting of Neurobasal supplemented with B27 (2%), L-glutamine (0.2 mM), 2% of PS solution and 10 ng/ml of BDNF. Viable cells are counted in a Neubauer cytometer using the trypan blue exclusion test. […]
Data are expressed in percentage of control conditions (no intoxication, no amyloid=100%) in order to express the amyloid injury. All values are expressed as mean+/−SEM (s.e.mean) of the 3 cultures (n=6 wells per condition). […]

Structure (SMILES): COc1ccc2c3c1O[C@H]1C[C@@H](O)C=C[C@@]31CCN(C)C2 [galantamine]
- protective effect on neuronal cells against Aβ1-42 toxicity: no or a marginal protective effect
